Reference: patent US20250002576A1
Results are given in words; binding and its absence hold for the method and conditions named. Some results given as binding are weak or reduced against the parent protein; the word gives no strength.

By UniProt entry, the sequences of proteins in these tests, tags left out. Where a name states a change or a piece, a line headed by the entry shows the natural chain unless it says otherwise. Chains listed by the source or under a name are the forms on record and can include a tag or linker.
hCLDN18.2 (antigen of the scFv screening) (P56856, form named): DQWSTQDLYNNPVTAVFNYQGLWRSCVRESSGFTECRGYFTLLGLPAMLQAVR

Molecular target: hCLDN18.2 (antigen of the scFv screening) (human) (UniProt P56856)
Test: ELISA or flow cytometry, scFv screening

| Binder | binding |
| --- | --- |
| YU574-D11 (scFv as screened) (scFv, V domains shown) VH: QVQLVQSGGGLVQPGGSLRLSCAASGFTFSSYAMSWVRQAPGKGLEWVSAISGSGGSTYYADSVKGRFTISRDNSKNTLYLQMNSLRAEDTAVYYCAGGANGFDPWGQGTLVTVSS VL: QSVLTQPPSVSGAPGQRVTISCTGSSSNIGAGYDVHWYQQLPGTAPKLLIYGNSNRPSGVPDRFSGSKSGTSASLAITGLQAEDEADYYCQSYDSSLSGLVFGGGTKLTVL | binds |
| YU577-E08 (scFv as screened) (scFv, V domains shown) VH: QVQLVQSGAEVKKPGASVKVSCKASGYTFTSYYMHWVRQAPGQGLEWMGIINPSGGSTSYAQKFQGRVTMTRDTSTSTVYMELSSLRSEDTAVYYCATRQFDYWGQGTLVTVSS VL: QSVLTQPPSVSAAPGQKVTISCSGSSSNIGNNYVSWYQQLPGTAPKLLIYENNKRPSGIPDRFSGSKSGTSATLGITGLQTGDEADYYCGTWDSSLSAAVFGGGTKVTVL | binds |
